According to paper PMC9126027:
Results are given in words; binding and its absence hold for the method and conditions named. In cells and extracts the contact can be indirect. Some results given as binding are weak or reduced against the parent protein; the word gives no strength.

By UniProt entry, the sequences of proteins in these tests, tags left out.
UniProt P50750: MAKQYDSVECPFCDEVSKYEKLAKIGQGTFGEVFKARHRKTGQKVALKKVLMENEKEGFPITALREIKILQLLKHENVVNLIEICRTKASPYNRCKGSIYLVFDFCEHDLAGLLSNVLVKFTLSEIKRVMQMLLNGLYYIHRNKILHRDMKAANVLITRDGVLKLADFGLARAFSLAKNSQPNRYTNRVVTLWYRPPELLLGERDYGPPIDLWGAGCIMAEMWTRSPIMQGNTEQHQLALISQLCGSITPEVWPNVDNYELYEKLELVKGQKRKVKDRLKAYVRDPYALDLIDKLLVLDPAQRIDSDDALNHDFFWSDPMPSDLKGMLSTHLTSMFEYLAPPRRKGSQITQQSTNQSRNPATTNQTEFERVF
UniProt P17844: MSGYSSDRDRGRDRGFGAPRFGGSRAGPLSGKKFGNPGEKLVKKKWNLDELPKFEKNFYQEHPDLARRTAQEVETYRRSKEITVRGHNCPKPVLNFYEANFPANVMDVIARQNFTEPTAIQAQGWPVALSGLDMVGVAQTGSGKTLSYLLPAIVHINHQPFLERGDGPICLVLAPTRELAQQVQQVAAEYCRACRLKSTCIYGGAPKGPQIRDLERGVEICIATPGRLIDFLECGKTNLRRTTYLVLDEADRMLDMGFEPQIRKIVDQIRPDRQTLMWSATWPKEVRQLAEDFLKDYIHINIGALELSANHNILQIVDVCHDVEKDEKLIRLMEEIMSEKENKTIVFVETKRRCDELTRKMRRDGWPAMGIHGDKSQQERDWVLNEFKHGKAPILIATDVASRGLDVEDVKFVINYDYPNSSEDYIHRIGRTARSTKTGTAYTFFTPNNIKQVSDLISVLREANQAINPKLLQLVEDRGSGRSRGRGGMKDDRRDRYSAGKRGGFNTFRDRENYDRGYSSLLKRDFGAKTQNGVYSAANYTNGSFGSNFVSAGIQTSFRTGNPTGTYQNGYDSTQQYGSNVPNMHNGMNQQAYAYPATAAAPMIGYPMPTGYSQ
UniProt Q9NQB0: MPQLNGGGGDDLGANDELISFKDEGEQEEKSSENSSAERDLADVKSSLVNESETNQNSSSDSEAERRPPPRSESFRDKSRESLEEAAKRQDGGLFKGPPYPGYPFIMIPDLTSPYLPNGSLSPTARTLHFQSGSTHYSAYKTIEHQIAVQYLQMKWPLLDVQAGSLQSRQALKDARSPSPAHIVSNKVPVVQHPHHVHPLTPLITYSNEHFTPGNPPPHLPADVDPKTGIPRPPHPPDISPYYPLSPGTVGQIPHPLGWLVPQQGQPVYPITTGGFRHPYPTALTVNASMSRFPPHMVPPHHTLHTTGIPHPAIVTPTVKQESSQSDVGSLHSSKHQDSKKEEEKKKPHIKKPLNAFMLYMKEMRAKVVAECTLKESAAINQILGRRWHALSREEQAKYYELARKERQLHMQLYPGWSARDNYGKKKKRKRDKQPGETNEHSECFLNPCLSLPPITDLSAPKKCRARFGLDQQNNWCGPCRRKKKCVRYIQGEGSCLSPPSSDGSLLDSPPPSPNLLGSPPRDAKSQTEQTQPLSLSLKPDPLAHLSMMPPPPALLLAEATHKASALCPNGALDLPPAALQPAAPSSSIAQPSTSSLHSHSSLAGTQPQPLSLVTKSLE
UniProt P01106: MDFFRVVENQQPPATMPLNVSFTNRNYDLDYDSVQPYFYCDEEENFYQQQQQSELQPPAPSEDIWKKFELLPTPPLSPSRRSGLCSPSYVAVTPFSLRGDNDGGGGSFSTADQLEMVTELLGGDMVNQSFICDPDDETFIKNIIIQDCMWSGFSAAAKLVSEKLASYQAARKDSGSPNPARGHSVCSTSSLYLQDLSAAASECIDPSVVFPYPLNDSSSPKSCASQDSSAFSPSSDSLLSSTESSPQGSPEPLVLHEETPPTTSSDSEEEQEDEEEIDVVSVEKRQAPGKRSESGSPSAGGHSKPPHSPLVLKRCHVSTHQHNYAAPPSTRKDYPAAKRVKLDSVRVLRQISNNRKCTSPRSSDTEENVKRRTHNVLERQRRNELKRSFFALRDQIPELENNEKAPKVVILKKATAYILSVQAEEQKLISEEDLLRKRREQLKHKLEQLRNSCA

How the values were obtained:
[1] = target: CDK9 (human (endogenous in HCT-8, SW620)) (UniProt P50750); assay: co-IP; IP with CDK9 antibody (control IgG) from lysates of HCT-8 and SW620 cells, western blot with DDX5 antibody; endogenous proteins
[2] = target: DDX5 (also called p68) (human (endogenous in SW620, Panc-1, HCT-8)) (UniProt P17844); assay: co-IP; IP with anti-DDX5 antibody (normal IgG as control) from lysates of SW620 and Panc-1 cells (Figure 4C) and of HCT-8 and SW620 cells (Figure 4E,F); RIPA lysis buffer, protein A/G-agarose, 4°C; western blots of the partners; endogenous proteins

| binding [1] | binding [2] | Molecule |
| --- | --- | --- |
| binds | – | DDX5 (also called p68) (from UniProt P17844 1-614) |
| – | binds | TCF‐4 (from UniProt Q9NQB0 1-619) |
| – | binds | c‐Myc (from UniProt P01106 1-454) |
| – | binds | c‐Rel/NF‐κB (protein, UniProt Q04864 1-619) MASGAYNPYIEIIEQPRQRGMRFRYKCEGRSAGSIPGEHSTDNNRTYPSIQIMNYYGKGKVRITLVTKNDPYKPHPHDLVGKDCRDGYYEAEFGQERRPLFFQNLGIRCVKKKEVKEAIITRIKAGINPFNVPEKQLNDIEDCDLNVVRLCFQVFLPDEHGNLTTALPPVVSNPIYDNRAPNTAELRICRVNKNCGSVRGGDEIFLLCDKVQKDDIEVRFVLNDWEAKGIFSQADVHRQVAIVFKTPPYCKAITEPVTVKMQLRRPSDQEVSESMDFRYLPDEKDTYGNKAKKQKTTLLFQKLCQDHVETGFRHVDQDGLELLTSGDPPTLASQSAGITVNFPERPRPGLLGSIGEGRYFKKEPNLFSHDAVVREMPTGVSSQAESYYPSPGPISSGLSHHASMAPLPSSSWSSVAHPTPRSGNTNPLSSFSTRTLPSNSQGIPPFLRIPVGNDLNASNACIYNNADDIVGMEASSMPSADLYGISDPNMLSNCSVNMMTTSSDSMGETDNPRLLSMNLENPSCNSVLDPRDLRQLHQMSSSSMSAGANSNTTVFVSQSDAFEGSDFSCADNSMINESGPSNSTNPNSHGFVQDSQYSGIGSMQNEQLSDSFPYEFFQV |
